From PubChem BioAssay AID463205 (Broad Institute, 2010) come the findings set out here.

The term AC50 denotes the concentration at which the activity in the assay is half-maximal.

The structures appear in SMILES notation. Among all 2,400 compounds or so, about 20 (0.8%) were called active.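 How the source made its calls: active means AC50 no more than ten times the highest tested concentration, or full inhibition at every dose giving a flat fit (cut at about 30 µM in these data); inconclusive means flat fit with activity between 30% and 70%, or poor-quality invalid fit; inactive means AC50 more than ten times the top tested dose.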 The list shows a part of the results.

The nature of the assay: inhibitors of ADP-Glo detection reagents, dose response, artefact control for GSK-3a inhibitor project, biochemical, luminescence, cell-free, homogeneous (AID 463205).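 Further: kinase-free counter-screen against the ADP-Glo detection reagents only; potency is for inhibitors that reduce the luminescence signal.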 The conditions noted are these: 5 uM ADP. (In ADP-Glo the light output rises with the ADP produced.)
Regarding `Cc1onc(-c2c(F)cccc2Cl)c1C(=O)OCC(=O)Nc1c(C)n(C)n(-c2ccccc2)c1=O`, the AC50 was inactive: > 30 µM.

Regarding `Cc1cccc(Nc2nc(C)cc(C)n2)c1`, the AC50 was inactive: > 30 µM.

For `c1ccc2c3c([nH]c2c1)-c1[nH]ncc1CC3`, the AC50 is inactive: > 30 µM.

Take `CC(=O)CSc1nc(N)c(C#N)c(-c2cccs2)c1C#N`: the AC50 is inactive: > 30 µM.

As to `c1ccc2[nH]c(-c3ccncc3)nc2c1`, the AC50 was inactive: > 30 µM.

For the molecule `CC(CC(=O)Nc1ncc([N+](=O)[O-])s1)c1ccccc1` (stereo not given), the AC50 is inactive: > 30 µM.

Consider `Cc1cccc(/C=c2\s/c(=C\C(=O)C(C)(C)C)[nH]c2=O)c1`, for which the AC50 was inactive: > 30 µM.

Take `COc1cc2c(cc1OC)-c1nnc(C)n1C1(CCCC1)C2`: the AC50 was inactive: > 30 µM.

In the case of `Cc1ccc(NC(=O)CSc2nnc(-c3ccncc3)o2)cc1`, the AC50 is inactive: > 30 µM.

In the case of `Oc1ccc(-c2n[nH]c(=S)n2Cc2ccccc2)cc1`, the AC50 is inactive: > 30 µM.

As for `COc1ccc(Nc2nc(-c3cc4cccc(OC)c4oc3=O)cs2)cc1`, the AC50 is inactive: > 30 µM.

For `COc1ccc(-c2nc(N)ncc2-c2ccccc2)c(O)c1`, the AC50 was inactive: > 30 µM.

As for `CCOC(=O)c1[nH]c2c(c1C)C(=O)CC(c1ccc(OC)c(OC)c1)C2` (stereo not given), the AC50 was inactive: > 30 µM.

As to `CCCCOC(=O)C1=C(C)Nc2ncnn2C1c1cc(OC)ccc1OC` (stereo not given), the AC50 is inactive: > 30 µM.

As to `CCc1cccc(NC(=O)C2CCN(c3ncnc4sc(C)c(C)c34)CC2)c1`, the AC50 was inactive: > 30 µM.

For `O=C(c1ccco1)c1cn(CC(=O)N2CCCC2)c2ccccc12`, the AC50 is inactive: > 30 µM.

Turning to `O=C(CN(Cc1ccc(F)cc1)C(=O)CCC(=O)Nc1nccs1)NCc1ccc(F)cc1`, the AC50 is inactive: > 30 µM.

Take `O=C(Nc1nccs1)C1CCN(S(=O)(=O)c2cnc[nH]2)CC1`: the AC50 is inactive: > 30 µM.

In the case of `COc1ccc(CC(=O)Nc2nccs2)cc1OC`, the AC50 is inactive: > 30 µM.

On to `COC(=O)c1ccc(CSc2nnc(SCc3ccc(C(=O)OC)o3)s2)o1`, for which the AC50 is inactive: > 30 µM.

As for `CN(C)CCCNc1oc(-c2ccccc2)nc1C#N`, the AC50 is inactive: > 30 µM.

As to `O=C(/C=C/c1cccc2ccccc12)c1ccncc1`, the AC50 is inactive: > 30 µM.

As for `COCCNc1nc(N)c([N+](=O)[O-])c(N2CCCCCC2)n1`, the AC50 is inactive: > 30 µM.

For the molecule `CN1/C(=C/C(=O)C2CC2)C(C)(C)c2ccccc21`, the AC50 was inactive: > 30 µM.

For `COc1ccc2cc(C(N)=O)c(=Nc3ccccc3)oc2c1`, the AC50 is inactive: > 30 µM.

For `C/C(NCCCn1ccnc1)=C(\C#N)C(N)=O`, the AC50 is inactive: > 30 µM.

Regarding `Cc1ccc(-n2c(C)c([N+](=O)[O-])c3ccc(O)c(CN(C)C)c32)cc1`, the AC50 is inactive: > 30 µM.

Consider `Cc1c(CN(C)C)c2c(n1Cc1ccccc1)C(=O)c1ccc(Br)cc1-2`, for which the AC50 was inactive: > 30 µM.

With `c1ccc(-c2noc(CSc3nnnn3-c3ccccc3)n2)cc1`, the AC50 was inactive: > 30 µM.

On to `CCOC(=O)c1cc(-c2ccc(F)cc2)n(CC(=O)NCc2cccnc2)c1C`, for which the AC50 was inactive: > 30 µM.

Consider `CC(C)C(=O)Nc1cccc2nsnc12`, for which the AC50 is inactive: > 30 µM.

In the case of `CCOC(=O)c1cccnc1NC(=O)c1ccncc1`, the AC50 was inactive: > 30 µM.

Consider `Cc1ccc(OCC(=O)NNC(=O)C(C)Sc2ncnc3sc(C)c(C)c23)cc1` (stereo not given), for which the AC50 is inactive: > 30 µM.

On to `N#C/C(=N\Nc1c(Cl)cccc1Cl)C(=O)NN`, for which the AC50 was inactive: > 30 µM.

In the case of `O=[N+]([O-])c1ccc(NC2CCCC2)cc1`, the AC50 is inactive: > 30 µM.

Regarding `COc1c(-c2ccc(O)c(O)c2)oc2cc(O)cc(O)c2c1=O`, the AC50 was inactive: > 30 µM.

As to `COc1ccc(C2=Nn3c(nnc3-c3ccccc3)SC2)cc1OC`, the AC50 was inactive: > 30 µM.

As to `COc1cccc(/C=N/n2nnnc2N)c1OCC#N`, the AC50 was inactive: > 30 µM.

As for `CN1CCC(=NNC(=O)C(=O)NC2CCCC2)CC1`, the AC50 is inactive: > 30 µM.

In the case of `O=[N+]([O-])c1cnc2nc(-c3ccncc3)nn2c1O`, the AC50 is inactive: > 30 µM.

Turning to `Cc1ccc(C2C3=C(CCCC3=O)Nc3[nH]c(=S)[nH]c(=O)c32)cc1` (stereo not given), the AC50 was inactive: > 30 µM.

As to `CC(=O)Nc1cccc(-c2csc(N)n2)c1`, the AC50 is inactive: > 30 µM.

In the case of `Cc1cccc2c(N=Nc3ccccc3)c(O)[nH]c12`, the AC50 was inactive: > 30 µM.

As for `Brc1ccc(-c2nc3ncccn3c2NC2CCCCC2)o1`, the AC50 was inactive: > 30 µM.

In the case of `CCOc1ccc(Nc2nc(NCc3ccco3)nc(N)c2[N+](=O)[O-])cc1`, the AC50 was inactive: > 30 µM.

As to `Cc1ccc(N=Nc2c(O)ccc3n[nH]nc23)cc1`, the AC50 is inactive: > 30 µM.

For `CCOC(=O)c1cc(-c2ccc(F)cc2)n(CC(=O)NCc2ccccn2)c1C`, the AC50 was inactive: > 30 µM.

As to `COc1ccc(-c2cc(C(F)(F)F)nc(SCCC(=O)NCc3ccco3)n2)cc1`, the AC50 was inactive: > 30 µM.

Turning to `CCCCOC(=O)c1ccc(N/C(=N\S(=O)(=O)c2ccccc2)c2ccccc2)cc1`, the AC50 was inactive: > 30 µM.

As for `O=C(Nc1cccc(-c2cnc3ccccc3n2)c1)c1ccco1`, the AC50 was inactive: > 30 µM.

On to `CCSC1(SCC)N=C(N)C2(C#N)C(c3ccc(F)cc3)C12C#N` (stereo not given), for which the AC50 is inactive: > 30 µM.

For `Cc1cc(C)c2[nH]c(O)c(N=Nc3ccc(C(=O)O)cc3)c2c1`, the AC50 was inactive: > 30 µM.

Regarding `O=C(NCCN1CCN(Cc2ccccc2Cl)CC1)Nc1ccccc1`, the AC50 is inactive: > 30 µM.

In the case of `CC1CCN(Cc2c(C(=O)N/N=C/c3ccc(C(F)(F)F)cc3)nnn2-c2nonc2N)CC1`, the AC50 is inactive: > 30 µM.

As for `N#Cc1c(Nc2ccccc2)c(/C=N/NCCO)c[nH]c1=O`, the AC50 was inactive: > 30 µM.

For the molecule `Clc1ccc(-c2nnc(SCc3nc(-c4ccccc4)no3)o2)cc1`, the AC50 is inactive: > 30 µM.

Consider `Fc1ccc(/C=N/Nc2ncnc3nc[nH]c23)cc1F`, for which the AC50 was inactive: > 30 µM.

For `CCc1c(C)c(C#N)c2nc3ccccc3n2c1NCC1CCCO1` (stereo not given), the AC50 was inactive: > 30 µM.

For `CCN1CCc2c(C#N)c(N3CCOCC3)nc(NCCO)c2C1`, the AC50 was inactive: > 30 µM.

In the case of `O=C(c1ccccc1)c1cnc(Nc2ccccc2Cl)s1`, the AC50 is inactive: > 30 µM.

`Brc1ccc(-c2nnc3ccc(Nc4ccccc4)nn23)cc1`: the AC50 was inactive: > 30 µM.

Turning to `CCOC(=O)c1[nH]c2c(c1-c1ccccc1)C(=O)CC(c1ccc(OC)c(OC)c1)C2` (stereo not given), the AC50 was inactive: > 30 µM.

Turning to `C=CCN1C(=O)/C(=C\c2cccs2)C(C(=O)OC)=C1C`, the AC50 is inactive: > 30 µM.

With `Cc1ccc2oc(=O)c3cnn(CC(=O)N4CCN(c5ccccc5)CC4)c3c2c1`, the AC50 is inactive: > 30 µM.

Regarding `CC(C)(C)N1C(=O)c2ccc(C(=O)O)cc2C1=O`, the AC50 is inactive: > 30 µM.

With `CNC(=O)c1ccc(NC(=O)C2CCN(c3ncnc4sc(C)c(C)c34)CC2)cc1`, the AC50 was inactive: > 30 µM.

In the case of `Cc1sc2ncnc(NCc3ccco3)c2c1C`, the AC50 was inactive: > 30 µM.

Take `c1ccc(CN2CCN(CCCNc3ccc4nnc(-c5ccccc5)n4n3)CC2)cc1`: the AC50 was inactive: > 30 µM.

As for `Cc1ccccc1Cn1c(-c2ccc(=O)[nH]c2)nc2ccccc21`, the AC50 was inactive: > 30 µM.

With `NC(=O)c1sc2nccc(Nc3ccccc3)c2c1N`, the AC50 is inactive: > 30 µM.

`O=C(NC(=S)Nc1cccc2cnccc12)c1ccccc1`: the AC50 was inactive: > 30 µM.

Take `COc1ccccc1-c1noc(CSc2nc(C)cc(=O)[nH]2)n1`: the AC50 is inactive: > 30 µM.

`CCC(=O)NC(=S)Nc1cccc(C(C)=O)c1`: the AC50 is inactive: > 30 µM.

In the case of `Nc1nc(SCC(=O)Nc2ccc(Oc3ccccc3)cc2)n[nH]1`, the AC50 was inactive: > 30 µM.

With `COc1ccc(N=Nc2c(C)n[nH]c2C)cc1`, the AC50 is inactive: > 30 µM.

`O=Cc1c(NCCc2cccc(F)c2)c2ccccc2[nH]c1=O`: the AC50 is inactive: > 30 µM.

Regarding `Cc1ccc(C2CC(=O)N3CN(Cc4ccco4)CSC3=C2C#N)cc1` (stereo not given), the AC50 was inactive: > 30 µM.

For the molecule `COc1ccccc1Nc1nc(C)cc(C)n1`, the AC50 was inactive: > 30 µM.

As for `Cc1oc2ccc(O)cc2c1C(=O)c1ccc(Br)cc1`, the AC50 was inactive: > 30 µM.

Consider `Cc1cccc(C(=O)Nc2nccs2)c1[N+](=O)[O-]`, for which the AC50 is inactive: > 30 µM.

Consider `COc1ccc(Nc2nc(S(=O)(=O)c3ccc(C)cc3)c(Cl)s2)cc1`, for which the AC50 is inactive: > 30 µM.

On to `Cc1c(/C=N/Nc2ccc([N+](=O)[O-])cn2)c2ccccc2n1Cc1ccccc1`, for which the AC50 was inactive: > 30 µM.

For `COc1cc(OC)cc(C2C(C#N)=C(N)Oc3n[nH]c(-c4cccnc4)c32)c1` (stereo not given), the AC50 was inactive: > 30 µM.

Take `Cc1ccc(C)c(-n2c3nc(=O)n(C)c(=O)c-3cc3ccccc32)c1`: the AC50 is inactive: > 30 µM.

Take `O=C(c1ccco1)N(Cc1ccccc1)c1cccc([N+](=O)[O-])c1`: the AC50 is inactive: > 30 µM.

On to `Cc1ccc2oc(=O)c3cnn(CC(=O)N4CCCCC4C)c3c2c1` (stereo not given), for which the AC50 is inactive: > 30 µM.

As to `N#CC1=C(N)C(C#N)(C#N)C(c2ccc[nH]2)C2CCCC=C12` (stereo not given), the AC50 was inactive: > 30 µM.

Turning to `NC(=O)CSc1nc(C2CC2)nc2sc3c(c12)CCCC3`, the AC50 is inactive: > 30 µM.

On to `O=c1c(O[C@H]2O[C@@H](CO)[C@H](O)[C@@H](O)[C@@H]2O)c(-c2ccc(O)cc2)oc2cc(O)cc(O)c12`, for which the AC50 was inactive: > 30 µM.

As to `CCOC(=O)c1ccc(N2C=C(C(=O)OC)C(c3ccc(OC)c(O)c3)C(C(=O)OC)=C2)cc1`, the AC50 was inactive: > 30 µM.

With `CCOC(=O)c1cc(C(=O)OCC)c2cc(Br)ccc2n1`, the AC50 is inactive: > 30 µM.

As for `C=CCSc1ncnc2c1oc1nc3c(cc12)COC(C)(C)C3`, the AC50 was inactive: > 30 µM.

`Cc1ccc(-c2cn3cccnc3n2)cc1NC(=O)c1ccc(Br)o1`: the AC50 was inactive: > 30 µM.

`Cc1csc(NC(=O)C2CC(=O)N(c3ccc(C)c(C)c3)C2)n1` (stereo not given): the AC50 is inactive: > 30 µM.

Regarding `CC(C)NC(=O)/C(=C\c1cccc([N+](=O)[O-])c1)NC(=O)c1ccccc1`, the AC50 is inactive: > 30 µM.
